Source: PMC10085685

Sequences of proteins named here, by UniProt entry; tags and fusion partners are left off. A change or cut given only in a name is not applied to a line headed by its entry.
UniProt Q9LY34: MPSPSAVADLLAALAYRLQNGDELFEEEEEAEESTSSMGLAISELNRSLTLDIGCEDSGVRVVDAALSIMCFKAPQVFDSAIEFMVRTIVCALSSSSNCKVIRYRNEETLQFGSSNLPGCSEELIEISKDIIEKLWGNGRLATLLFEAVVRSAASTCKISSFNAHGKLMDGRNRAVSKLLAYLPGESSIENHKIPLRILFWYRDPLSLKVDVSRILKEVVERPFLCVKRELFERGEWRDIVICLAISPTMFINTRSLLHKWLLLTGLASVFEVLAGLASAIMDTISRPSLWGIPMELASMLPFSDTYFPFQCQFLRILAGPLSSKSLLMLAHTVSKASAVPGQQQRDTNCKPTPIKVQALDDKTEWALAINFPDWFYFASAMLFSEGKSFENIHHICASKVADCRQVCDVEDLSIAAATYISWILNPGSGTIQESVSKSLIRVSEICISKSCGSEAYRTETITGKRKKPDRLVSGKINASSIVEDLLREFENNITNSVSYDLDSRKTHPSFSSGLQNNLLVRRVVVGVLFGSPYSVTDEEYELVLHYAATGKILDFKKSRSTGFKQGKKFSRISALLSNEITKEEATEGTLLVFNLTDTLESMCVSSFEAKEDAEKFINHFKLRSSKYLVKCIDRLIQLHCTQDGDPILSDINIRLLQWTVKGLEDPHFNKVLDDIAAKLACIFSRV

B1: FANCE (AT4G29560), co-purified from Arabidopsis cells (protein, UniProt Q9SU89 1-493)
chain: MEEWIPLFDIFLKSPSPEAEASLWLDQASNLFSSSSSAAAPINRSSFVSLLKKQCDQNSSPVTKKVLFIETLPNMVQSKILSFLLFEYQRFCVSDLVWLAREMLGSGGNKVVDFWVQRDAHNLLDRIPKPKFEWISNLDLDSADEDSMKQVFDSVPDWLSEKLGSAGTILPWLPVSCDDVDSEMLVVDSWNGKEITQIKEDMEEDQREVVHNIDHTMTVGLQAHDHEMAVNLRAQISNFESTSEVLTLCNDIRRLCLEKGKDSLRVLALIEPWNADDETAAVLLSSLHNGSEEEELGWPSHVLCSIVLPKFLSLEKSASRVLMSSTIEFCKIHQRAAEYALVFPLILRKEGINNFICEVISRVLKECLHLGQISGFCQKLLCGRTQERRFMFLPCHRDLISDELTWNEYLFILFQNILIHGIPLSQDSVDCLVSKVQELAERYSKSLKFGNFLLHFTAKCAPMLQAHKYQLIESVKCTNSLVTKSILSKLNAL
B2: FANCM (AT1G35530), co-purified from Arabidopsis cells (protein, UniProt I3XHK1 1-1344)
chain: MGSRVPIETIEEDGEFDWEAAVKEIDLACLKTTNASSSSSSHFTPLANPPITANLTKPPAKRQSTLDKFIGRTEHKPENHQVVSECGVNDNDNSPLVGIDPEAAKTWIYPVNGSVPLRDYQFAITKTALFSNTLVALPTGLGKTLIAAVVMYNYFRWFPQGKIVFAAPSRPLVMQQIEACHNIVGIPQEWTIDLTGQTCPSKRAFLWKSKRVFFVTPQVLEKDIQSGTCLTNYLVCLVIDEAHRALGNYSYCVVVRELMAVPIQLRILALTATPGSKTQAIQGIIDNLQISTLEYRNESDHDVCPYVHDRKLEVIEVPLGQDADDVSKRLFHVIRPYAVRLKNFGVNLNRDIQTLSPHEVLMARDKFRQAPLPGLPHVNHGDVESCFAALITLYHIRKLLSSHGIRPAYEMLEEKLKEGPFARLMSKNEDIRMTKLLMQQRLSHGAPSPKLSKMLEILVDHFKVKDPKTSRVIIFSNFRGSVRDIMNALSNIGDMVKATEFIGQSSGKTLKGQSQKIQQAVLEKFRAGGFNVIVATSIGEEGLDIMEVDLVICFDANVSPLRMIQRMGRTGRKNNGRVVVLACEGSEKNSYMRKQASGRAIKKHMRNGGTNSFNFHPSPRMIPHVYKPEVQHVEFSIKQFVPRGKKLQEEYATETPAFQKKLTPAETHMLAKYYNNPDEEKLRVSLIAFPHFQTLPSKVHKVMHSRQTGMLIDAMQHLQEPTFSEQSKSFFTEFRAPLGEREELDTGLRVTNDPKDLHSVRDLEVNTSQRKAKQVESPTSTLETTEKDYEESSPTHRYLFSSECASVDTLGNVFVMPVPLLFFPNVLESDNTPLPKTEKQHSCRNTSHIDLVPVDTSEKHRQDNISCKLKERFSPDGASETLETHSLVKRNSTRVGEDDVANSVGEIVLSSDEDDCEGLELSPRLTNFIKSGIVPESPVYDQGEANREEDLEFPQLSSPMRFSNELAGESSFPERKVQHKCNDYNIVSTTTELRTPQKEVGLANGTECLAVSPIPEDWRTPLANLTNTNSSARKDWRVSSGEKLETLRQPRKLKRLRRLGDCSSAVKENYPGITEADHIRSRSRGKKHIRGKKKMIMDDDVQVFIDEEAEVSSGAEMSADENEDVTGDSFEDSFIDDGTMPTANTQAESGKVDMMAVYRRSLLSQSPLPARFRDLAASSLSPYSAGPLTRINESRSDSDKSLSSLRTPKTTNSESNQDAMMIGNLSVVQISSDSRKRKFSLCNSANAPVINLESKFAAHAQATEKESHEGVRSNAGALEYNDDDDDAFFATLDFDAMEAQATLLLSKQRSEAKEKEDATVIPNPGMQRSDGMEKDAPSFDLGLW
B3: MHF2 (AT1G78790), co-purified from Arabidopsis cells (protein, UniProt Q8L7N3 1-104)
chain: MDANNTFDSDLIHAIFKHIWARRFRERERSDAIDATEAEVALGTTKKNRLASANANALKLSCELLKSFVSEAVQRAAIIAEAEGMEKIEATHLERILPQLLLDF

The binders below were run against C-terminal GSrhino-tagged FANCC (At3g60310/AtFANCC) (Arabidopsis thaliana) (UniProt Q9LY34) (assay: affinity purification with mass spectrometry; GSrhino-tagged FANCC overexpressed as bait in Arabidopsis cell suspension culture; pull-down, on-bead digestion, Q Exactive mass spectrometer; three replicates; filtered against a list of non-specific proteins).

binding, binds:
B1
B2
B3

No constants are given. Whether binding was seen depends on the method and setting. Binding seen in cells or lysates may run through a third protein. These calls come from enrichment with a bait or labelling near it, and not all partners need be listed.
